{"source": "ChEMBL document CHEMBL4303122", "about": "“Identification of potential treatments for COVID-19 through artificial intelligence-enabled phenomic analysis of human cells infected with SARS-CoV-2” (2020)", "note": "Several values for one entry are separate records, joined by “and”; a condition that tells them apart may be missing. Identical values can stand only once. Whole data set: some 1,600 compounds, median “Hit score” near 0.13, cut for the highest 2% near 0.46. Some of the results follow."}
{"system": "SARS-CoV-2", "assay": "Antiviral activity against SARS-CoV-2 (USA-WA1/2020 strain) measured by imaging in HRCE cells at MOI 0.4 after 96 hrs (reported as hit score from 0-1 for on-disease vs off-disease activity: scores >0.6 considered hits)", "assay_type": "functional, Homo sapiens"}
{"molecule": "CCOC(=O)N[C@@H]1CC[C@@H]2[C@@H](C1)C[C@H]1C(=O)O[C@H](C)[C@H]1[C@H]2/C=C/c1ccc(-c2cccc(F)c2)cn1", "note": "[VORAPAXAR]", "Hit score": 0.1452}
{"molecule": "CCC(O)(c1ccccc1)c1cccc(C(F)(F)F)c1", "note": "(centres undefined) [FLUMECINOL]", "Hit score": 0.1872}
{"molecule": "COc1nc(N)nc2c1ncn2[C@@H]1O[C@H](CO)[C@@H](O)[C@@H]1O", "note": "[NELARABINE]", "Hit score": 0.1307}
{"molecule": "COc1ccccc1N1CCN(CCCNc2cc(=O)n(C)c(=O)n2C)CC1", "Hit score": 0.1524}
{"molecule": "C[C@]1(COc2ccc(N3CCC(Oc4ccc(OC(F)(F)F)cc4)CC3)cc2)Cn2cc([N+](=O)[O-])nc2O1", "Hit score": 0.07377}
{"molecule": "O=C1[C@H](CC[C@H](O)c2ccc(F)cc2)[C@@H](c2ccc(O)cc2)N1c1ccc(F)cc1", "note": "[EZETIMIBE]", "Hit score": 0.04755}
{"molecule": "O=S(=O)(O)c1cc(I)c(O)c2ncccc12", "note": "[8-HYDROXY-7-IODO-5-QUINOLINESULFONIC ACID]", "Hit score": 0.2325}
{"molecule": "CC(=O)[C@@]1(O)CC[C@H]2[C@@H]3C[C@H](C)C4=CC(=O)C=C[C@]4(C)[C@@]3(F)[C@@H](O)C[C@@]21C", "note": "[FLUOROMETHOLONE]", "Hit score": -0.1428}
{"molecule": "Cc1cnc(C(=O)NCCc2ccc(S(=O)(=O)NC(=O)NC3CCCCC3)cc2)cn1", "note": "[GLIPIZIDE]", "Hit score": 0.0999}
{"molecule": "O=C(O)COCCN1CCN([C@H](c2ccccc2)c2ccc(Cl)cc2)CC1", "note": "[LEVOCETIRIZINE]", "Hit score": -0.05445}
{"molecule": "CNCC(O)c1ccc(O)cc1", "note": "(centres undefined) [OXEDRINE]", "Hit score": 0.07332}
{"molecule": "CC(COc1ccccc1Cc1ccccc1)N1CCCCC1", "note": "(centres undefined) [BENPROPERINE]", "Hit score": 0.02777}
{"molecule": "COC(=O)C1=C(C)NC(C)=C(C(=O)OCC(C)C)C1c1ccccc1[N+](=O)[O-]", "note": "(centres undefined) [NISOLDIPINE]", "Hit score": 0.4022}
{"molecule": "Oc1cc(O)c(Cl)cn1", "Hit score": 0.1623}
{"molecule": "CN1CCN(c2c(F)cc3c(=O)c(C(=O)O)cn4c3c2SCC4)CC1", "note": "[RUFLOXACIN]", "Hit score": 0.2005}
{"molecule": "OC[C@H]1O[C@@H](c2ccc(Cl)c(Cc3ccc(O[C@H]4CCOC4)cc3)c2)[C@H](O)[C@@H](O)[C@@H]1O", "note": "[EMPAGLIFLOZIN]", "Hit score": 0.03968}
{"molecule": "COC(=O)C1=C(C)NC(C)=C(C(=O)OCCN(C)Cc2ccccc2)C1c1cccc([N+](=O)[O-])c1", "note": "(centres undefined) [NICARDIPINE]", "Hit score": 0.1855}
{"molecule": "Cc1ccccc1C(OCCN(C)C)c1ccccc1", "note": "(centres undefined) [ORPHENADRINE]", "Hit score": 0.07501}
{"molecule": "O=C1C(O)=C([C@H]2CC[C@H](c3ccc(Cl)cc3)CC2)C(=O)c2ccccc21", "note": "[ATOVAQUONE]", "Hit score": 0.1017}
{"molecule": "CNCc1cc(-c2ccccc2F)n(S(=O)(=O)c2cccnc2)c1", "note": "[VONOPRAZAN]", "Hit score": 0.1252}
{"molecule": "CC1(C)CCC[C@]2(C)[C@H]3CC(=O)O[C@]3(C)[C@@H](O)C[C@@H]12", "Hit score": 0.05012}
{"molecule": "CC(=O)[C@H]1CC[C@H]2[C@@H]3CC[C@H]4C[C@H](O)CC[C@]4(C)[C@H]3CC[C@]12C", "note": "[BREXANOLONE]", "Hit score": "0.07305 and 0.1505"}
{"molecule": "C=CC1=C(C(=O)O)N2C(=O)[C@@H](NC(=O)/C(=N\\OCC(=O)O)c3csc(N)n3)[C@H]2SC1", "note": "[CEFIXIME]", "Hit score": 0.1035}
{"molecule": "CCCCC[C@H](O)/C=C/[C@@H]1[C@H]2C/C(=C/CCCC(=O)O)O[C@H]2C[C@H]1O", "note": "[EPOPROSTENOL]", "Hit score": 0.02737}
{"molecule": "Cc1ccc(NC2=NCCN2)c(Cl)c1", "note": "[TOLONIDINE]", "Hit score": 0.2301}
{"molecule": "NCCCC(N)(C(=O)O)C(F)F", "note": "(centres undefined) [EFLORNITHINE]", "Hit score": 0.2258}
{"molecule": "C[C@]12CC[C@H]3[C@@H](CC[C@@]45O[C@@H]4C(O)=C(C#N)C[C@]35C)[C@@H]1CC[C@@H]2O", "note": "[TRILOSTANE]", "Hit score": 0.3178}
{"molecule": "CCCCCCCCCCCC1=C(O)C(=O)C=C(O)C1=O", "note": "[EMBELIN]", "Hit score": 0.1645}
{"molecule": "NC(=O)NC1NC(=O)NC1=O", "note": "(centres undefined) [ALLANTOIN]", "Hit score": 0.1646}
{"molecule": "O=C1CCc2ccc(OCCCCN3CCN(c4cccc(Cl)c4Cl)CC3)cc2N1", "note": "[ARIPIPRAZOLE]", "Hit score": 0.05852}
{"molecule": "CN(C)CCOC(c1ccc(Cl)cc1)c1ccccn1", "note": "(centres undefined) [CARBINOXAMINE]", "Hit score": 0.1089}
{"molecule": "CS(=O)(=O)O.O.O=C(O[C@@H]1C[C@@H]2C[C@H]3C[C@H](C1)N2CC3=O)c1c[nH]c2ccccc12", "note": "[DOLASETRON MESYLATE]", "Hit score": 0.1048}
{"molecule": "CC/C(=C(\\c1ccccc1)c1ccc(OCCN(C)C)cc1)c1ccccc1", "note": "[TAMOXIFEN]", "Hit score": 0.04997}
{"molecule": "NCc1ccc(S(N)(=O)=O)cc1", "note": "[MAFENIDE]", "Hit score": 0.194}
{"molecule": "C[N+]1(CC2CC2)[C@@H]2C[C@@H](OC(=O)[C@H](CO)c3ccccc3)C[C@H]1[C@@H]1O[C@@H]12", "note": "(some centres undefined) [CIMETROPIUM]", "Hit score": 0.08586}
{"molecule": "CCOC(=O)[N-]c1c[n+](N2CCOCC2)no1", "note": "[MOLSIDOMINE]", "Hit score": 0.2896}
{"molecule": "CC[N+](CC)(CC)CCOc1cccc(OCC[N+](CC)(CC)CC)c1OCC[N+](CC)(CC)CC", "note": "[GALLAMINE]", "Hit score": 0.08324}
{"molecule": "C=C(c1ccc(C(=O)O)cc1)c1cc2c(cc1C)C(C)(C)CCC2(C)C", "note": "[BEXAROTENE]", "Hit score": 0.3402}
{"molecule": "COc1cc2ncnc(Nc3ccc(F)c(Cl)c3)c2cc1OCCCN1CCOCC1", "note": "[GEFITINIB]", "Hit score": 0.178}
{"molecule": "CC(C)[C@H](N)C(=O)OCC(CO)OCn1cnc2c(=O)[nH]c(N)nc21", "note": "(some centres undefined) [VALGANCICLOVIR]", "Hit score": 0.1497}
{"molecule": "CC[C@@H]([C@H](C)O)n1ncn(-c2ccc(N3CCN(c4ccc(OC[C@@H]5CO[C@@](Cn6cncn6)(c6ccc(F)cc6F)C5)cc4)CC3)cc2)c1=O", "note": "[POSACONAZOLE]", "Hit score": 0.1108}
{"molecule": "CCN1CCC[C@H]1CNC(=O)c1c(O)c(Cl)cc(Cl)c1OC", "note": "[RACLOPRIDE]", "Hit score": 0.02798}
{"molecule": "CCc1ccc(C(=O)C(C)CN2CCCCC2)cc1", "note": "(centres undefined) [EPERISONE]", "Hit score": 0.4436}
{"molecule": "CC(C)Cc1ccc(C(C)C(=O)O)cc1", "note": "(centres undefined) [IBUPROFEN]", "Hit score": 0.09253}
{"molecule": "COc1ccc(CN2CCN(C(c3ccc(F)cc3)c3ccc(F)cc3)CC2)c(OC)c1OC", "note": "[LOMERIZINE]", "Hit score": -0.04979}
{"molecule": "C[C@]12CCC3=C4CCC(=O)C=C4CC[C@H]3[C@@H]1CC[C@@]2(O)CC#N", "note": "[DIENOGEST]", "Hit score": 0.1799}
{"molecule": "Cc1cc(N2CCN([C@@H]3CN[C@H](C(=O)N4CCSC4)C3)CC2)n(-c2ccccc2)n1", "note": "[TENELIGLIPTIN]", "Hit score": 0.3043}
{"molecule": "Cc1cccc(-c2nn(C(=S)Nc3ccccc3)cc2-c2ccnc3ccccc23)n1", "Hit score": -0.5516}
{"molecule": "CCN1CCN(Cc2ccc(Nc3ncc(F)c(-c4cc(F)c5nc(C)n(C(C)C)c5c4)n3)nc2)CC1", "note": "[ABEMACICLIB]", "Hit score": 0.0735}
{"molecule": "Nc1nc2[nH]cc(CCc3ccc(C(=O)N[C@@H](CCC(=O)O)C(=O)O)cc3)c2c(=O)[nH]1", "note": "[PEMETREXED]", "Hit score": 0.2782}
{"molecule": "CC(C)(C)NC[C@H](O)COc1ccccc1C1CCCC1", "note": "[PENBUTOLOL]", "Hit score": 0.4905}
{"molecule": "CC[C@H]1[C@@H]2C[C@H]3[C@@H]4N(C)c5ccccc5[C@]45C[C@@H]([C@@H]2[C@H]5O)N3[C@@H]1O", "note": "[AJMALINE]", "Hit score": 0.06447}
{"molecule": "O=C(OCCOCCO)c1ccccc1Nc1cccc(C(F)(F)F)c1", "note": "[ETOFENAMATE]", "Hit score": 0.02454}
{"molecule": "O=C(O)c1cc2ccccc2c(Cc2c(O)c(C(=O)O)cc3ccccc23)c1O", "note": "[PAMOIC ACID]", "Hit score": 0.0734}
{"molecule": "Cc1cnc(C(=O)O)c[n+]1[O-]", "note": "[ACIPIMOX]", "Hit score": 0.138}
{"molecule": "C=C1/C(=C\\C=C2/CCC[C@]3(C)[C@@H]([C@H](C)CC[C@@H](O)C(C)C)CC[C@@H]23)C[C@@H](O)C[C@@H]1O", "note": "[TACALCITOL]", "Hit score": 0.4469}
{"molecule": "O=c1c(O)c(-c2ccc(O)c(O)c2)oc2cc(O)cc(O)c12", "note": "[QUERCETIN]", "Hit score": 0.4241}
{"molecule": "CCN1CCN(C(=O)N[C@@H](C(=O)N[C@@H]2C(=O)N3C(C(=O)O)=C(CSc4nnnn4C)CS[C@H]23)c2ccc(O)cc2)C(=O)C1=O", "note": "[CEFOPERAZONE]", "Hit score": 0.1928}
{"molecule": "Cc1[nH]c2ccccc2c1CCNCc1ccc(/C=C/C(=O)NO)cc1", "note": "[PANOBINOSTAT]", "Hit score": -0.1816}
{"molecule": "CC(C)[N+]1(C)[C@@H]2CC[C@H]1C[C@@H](OC(=O)C(CO)c1ccccc1)C2", "note": "(some centres undefined) [IPRATROPIUM]", "Hit score": 0.06429}
{"molecule": "COc1ccnc(C[S+]([O-])c2nc3cc(OC(F)F)ccc3[nH]2)c1OC", "note": "(centres undefined) [PANTOPRAZOLE]", "Hit score": 0.1062}
{"molecule": "Nc1ccn([C@@H]2O[C@H](CO)[C@@H](O)[C@@H]2O)c(=O)n1", "note": "[CYTARABINE]", "Hit score": -0.0665}
{"molecule": "Nc1ccc(S(=O)(=O)Nc2ccccn2)cc1", "note": "[SULFAPYRIDINE]", "Hit score": 0.1383}
{"molecule": "C[N+]1([O-])CCN(C2=Nc3cc(Cl)ccc3Nc3ccccc32)CC1", "Hit score": 0.08141}
{"molecule": "O=c1ccc2ccccc2o1", "note": "[COUMARIN]", "Hit score": 0.2302}
{"molecule": "CCCCOc1cc(CC2CNC(=O)N2)ccc1OC", "note": "(centres undefined) [RO-201724]", "Hit score": 0.2283}
{"molecule": "C/C(=C(/CCOC(=O)C(C)C)SS/C(CCOC(=O)C(C)C)=C(\\C)N(C=O)Cc1cnc(C)nc1N)N(C=O)Cc1cnc(C)nc1N", "note": "[SULBUTIAMINE]", "Hit score": 0.1859}
{"molecule": "CCOC(=O)c1c(CSc2ccccc2)n(C)c2cc(Br)c(O)c(CN(C)C)c12", "note": "[UMIFENOVIR]", "Hit score": 0.02898}
{"molecule": "C#C[C@]1(O)CC[C@H]2[C@@H]3CCC4=CC(=O)CC[C@@H]4[C@H]3CC[C@@]21C", "note": "[NORETHINDRONE]", "Hit score": 0.1388}
